These are yes or no findings as the source states them, for the method shown. Some entries that bind do so weakly or less than the wild type. Sequences can lack the tags named with a protein.
Molecular target: 马血清(含马血清白蛋白) (horse serum, containing horse serum albumin) (horse) (UniProt P35747)
Experiment: ELISA, horse serum coated, A650

Sequences of proteins named here, by UniProt entry; tags and fusion partners are left off. Residues count along the entry.
UniProt P35747, residues 25-607: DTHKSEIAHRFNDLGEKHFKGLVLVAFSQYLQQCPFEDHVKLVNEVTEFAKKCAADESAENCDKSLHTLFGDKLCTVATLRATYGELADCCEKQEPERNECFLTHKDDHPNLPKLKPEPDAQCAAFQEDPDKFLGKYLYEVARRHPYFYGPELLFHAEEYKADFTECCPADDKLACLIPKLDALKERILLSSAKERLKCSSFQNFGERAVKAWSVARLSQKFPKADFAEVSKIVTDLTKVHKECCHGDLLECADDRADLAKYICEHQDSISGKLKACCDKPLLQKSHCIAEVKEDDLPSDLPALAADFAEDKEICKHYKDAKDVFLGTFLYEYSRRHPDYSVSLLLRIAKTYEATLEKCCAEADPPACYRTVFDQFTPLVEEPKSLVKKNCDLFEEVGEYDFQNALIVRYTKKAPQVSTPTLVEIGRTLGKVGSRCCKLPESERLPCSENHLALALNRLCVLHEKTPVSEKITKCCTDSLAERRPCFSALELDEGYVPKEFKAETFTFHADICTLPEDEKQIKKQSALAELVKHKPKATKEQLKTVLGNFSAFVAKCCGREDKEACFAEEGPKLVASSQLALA

- binding: binds
B1: 融合蛋白HF11-FC (expressed from pcDNA3.1 in 293F cells) (Fc fusion, not shown: a dimerising Fc or GST; small tags and cut ends)
chain: QVQLLESGGGLVQPGGSLRLSCAASGVKISYESMAWVRQAPGKGLEWVSSILMQNGSTYYADSVKGRFTISRDNSKNTLYLQMNSLRAEDTAVYYCATTRVRRPANMKYWGQGTLVTVSS
